Measurements reported in PubChem BioAssay AID493014 (National Center for Advancing Translational Sciences (NCATS), 2011).
Some of the results follow. These are further read-outs of the screen, such as a control signal, another cell line or another target. No call is given for them. Compounds called inactive in the main read-out are mostly missing here. Words in brackets tell the shape of the fitted curve; partial curves, single points and poor fits give uncertain potencies.

Test: qHTS Assay to Find Inhibitors of Chronic Active B-Cell Receptor Signaling
Details: ABC-DLBCL IkBa-CBG/CBR reporter, luminescence ratio (green luciferase fused to IkBa over red control in TMD8 lymphoma cells), 4 h
Method in brief: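 Cell line TMD8 (human ABC DLBCL), stably expressing tet-inducible CBG68-IkBa fusion and CBR; IMDM/0.5% FBS; cpd up to 46 uM; dox induction, 4 h, 37C/5% CO2; dual luminescence; green/red ratio; MG132 control.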

[1] = measured here: CBR red luminescence, cell number
[2] = measured here: IkBa-CBG green luminescence

SMILES	AC50 [1]	AC50 [2]
Cc1ccc(COc2ccc(/C=N/O)cc2)cc1	20.6 µM [rising, partial curve]	
COc1cc(C(C)=O)ccc1OCC(=O)c1cc(C)n(C2CC2)c1C	3.16 µM [rising, single point]	
O=C(Nc1cccnc1)c1c(F)cccc1F	18.4 µM [rising, partial curve, poor fit]	
CCCCOc1cccc(C(=O)Nc2ccc(N3CCN(CC)CC3)cc2)c1	0.259 µM [rising, full curve, poor fit]	
O=[N+]([O-])c1ccc(-n2nnnc2-c2ccccc2)c([N+](=O)[O-])c1	16.4 µM [falling, single point]	20.6 µM [rising, partial curve, poor fit]
Cc1cccc(OCC(=O)NCCNC(=O)c2ccccn2)c1	0.158 µM [falling, partial curve, poor fit]	
CCCCNC(=S)NCC(c1ccccc1)c1c[nH]c2ccccc12 (stereo not drawn)	35.5 µM [falling, single point]	
CCC(O)(CC)C(=O)N/N=C/c1cc(Br)cc(Br)c1O	35.5 µM [rising, single point]	
Clc1ccccc1CSc1cc2c(nn1)-c1ccccc1CC2	5.62 µM [rising, partial curve, poor fit]	
Cc1cnc(C(=O)Nc2ccc(OC(F)(F)F)cc2)cn1	0.0891 µM [rising, full curve, poor fit]	
CCOC(=O)c1c(NC(=O)C(NCCN(C)C)c2ccccc2)sc2c1CCCC2 (stereo not drawn)	3.98 µM [falling, partial curve]	
CCc1ccc(NC(=O)c2cc(C(C)C)on2)cc1	3.55 µM [falling, full curve]	
COc1ccc(/C(C)=N/NC(=O)c2ccc(N(C)C)cc2)cc1	3.55 µM [falling, single point]	
COc1ccc2nc(NC(=O)c3cccc(OCc4c(C)noc4C)c3)sc2c1	3.98 µM [falling, partial curve]	
N#Cc1c(-c2ccco2)nc(SCC(=O)Nc2ccc(S(N)(=O)=O)cc2)[nH]c1=O	18.4 µM [falling, single point]	
CCNC(=S)N1CCN(CCN2C(=O)c3cccc4cccc(c34)C2=O)CC1	12.6 µM [rising, single point]	
CC1(C)OC(=O)N(NCc2ccccc2)C1(C)O (stereo not drawn)	0.355 µM [rising, partial curve, poor fit]	
CCN1/C(=C/c2sc(-c3ccccc3C)c[n+]2C)Sc2ccccc21	1.12 µM [rising, partial curve, poor fit]	
CCc1c(C)sc(NC(=O)CC#N)c1C#N	32.6 µM [rising, single point]	
COC(=O)c1c(NC(=O)Cc2ccc(OC)c(S(=O)(=O)N3CCOCC3)c2)sc(C)c1C	8.2 µM [falling, partial curve]	
O=[N+]([O-])c1ccc(Nc2c3ccccc3nc3ccccc23)cc1	25.1 µM [falling, single point]	

Three records picked at random from the list so far, as already listed:
SMILES	AC50 [1]	AC50 [2]
O=[N+]([O-])c1ccc(-n2nnnc2-c2ccccc2)c([N+](=O)[O-])c1	16.4 µM [falling, single point]	20.6 µM [rising, partial curve, poor fit]
Clc1ccccc1CSc1cc2c(nn1)-c1ccccc1CC2	5.62 µM [rising, partial curve, poor fit]	
CCCCOc1cccc(C(=O)Nc2ccc(N3CCN(CC)CC3)cc2)c1	0.259 µM [rising, full curve, poor fit]	

Further results follow.

SMILES	AC50 [1]	AC50 [2]
COc1ccc(OC)c(N/C(C)=C/C(=O)c2ccccc2)c1	20.6 µM [rising, partial curve]	
COc1ccc(N2C(=O)C(Cc3ccccc3)NC2=S)cc1 (stereo not drawn)	0.708 µM [rising, full curve, poor fit]	
Cc1ccc(NC(=O)CN(C)C(=O)Cn2cc(C(F)(F)F)cc(Cl)c2=O)cc1	25.9 µM [rising, partial curve, poor fit]	
COc1ccc(CNC(=S)Nc2ccc(Br)cc2)cc1	11.2 µM [falling, partial curve, poor fit]	
O=C(Nc1nnc(C(F)(F)F)s1)C1COc2ccccc2O1 (stereo not drawn)	2.06 µM [falling, full curve, poor fit]	
CCOc1ccccc1Nc1nc(-c2sc(NC(=O)c3ccc([N+](=O)[O-])cc3)nc2C)cs1	11.2 µM [falling, partial curve]	
C=C1c2ccccc2NC(=O)N1c1ccc(OC)cc1	22.4 µM [falling, partial curve]	
N/C(=N\OC(=O)CC1CCCCC1)c1cccc(Br)c1	5.62 µM [rising, partial curve, poor fit]	
O=C(CCCC(=O)OCC(=O)c1cccs1)Nc1ccc(Oc2ccccc2)cc1	0.126 µM [falling, full curve, poor fit]	
CON(C)c1nc(OCCNC(=O)COc2ccc(Cl)cc2C)nc(N(C)C)n1	5.62 µM [rising, single point]	
O=C(CNc1cccc2ccccc12)N/N=C/c1ccc([N+](=O)[O-])cc1	0.461 µM [falling, full curve, poor fit]	
c1ccc(-c2sc3ccccc3c2-c2ccc(OCCN3CCCC3)cc2)cc1	1.64 µM [falling, partial curve]	
CCCCCC[N+](C)(C)CCSSCC[N+](C)(C)CCCCCC	14.1 µM [rising, single point]	
CCS(=O)(=O)c1ccc2oc(Nc3cccc(OC)c3)nc2c1	35.5 µM [falling, single point]	
CC1CCCN(C(C(=O)NC2CCCCC2)c2cc3c(cc2[N+](=O)[O-])OCO3)C1 (stereo not drawn)	7.31 µM [falling, partial curve, poor fit]	
O=C1c2cccc(OCC(=O)N3N=C(c4cccs4)CC3c3ccc(F)cc3)c2CCN1Cc1ccccc1 (stereo not drawn)	29.1 µM [rising, single point]	23.1 µM [falling, partial curve, poor fit]
COc1ccc2nc(NC(=O)C3CC(=O)N(c4ccccc4)C3)sc2c1 (stereo not drawn)	5.01 µM [falling, partial curve, poor fit]	
Cc1cccn2cc(CNS(=O)(=O)c3cccc(F)c3)nc12	3.66 µM [rising, full curve, poor fit]	
COc1ccccc1-c1sc2ccccc2c1-c1ccccc1OC	16.4 µM [rising, single point]	
COc1cccc(NC(=O)Cc2csc(NC(=O)Nc3ccccc3OC)n2)c1	18.4 µM [falling, partial curve, poor fit]	
